Experimental data: PubChem BioAssay AID1259424 (University of Nebraska Medical Center, 2018)
Test: 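Rank knockdowns across the genome by resemblance to the KSR1 depletion profile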 (primary screen). System: human HCT116 colon cancer cells. Reagent: siRNA pool against human genes, 50 nM. Measured: 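Log2 levels of six mRNAs (branched-DNA multiplex), adjusted by two reference genes and the non-targeting median, then scored against the average KSR1 knockdown pattern as Pearson r and euclidean distance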. Reading the numbers: mean correlation with KSR1 profile: higher = expression change more like KSR1 knockdown.
Shown is an unselected part of about 14,000 reagents. 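Higher correlation or smaller distance means closer resemblance to KSR1 loss; control wells, including KSR1 knockdowns, recur on many plates.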 A reagent listed more than once was tested more than once; the source does not tell the runs apart. Further read-outs or replicates are left out here. Not stated in the record: the time to read-out.

Target gene	mean correlation with KSR1 profile
OTUB1 (OTU deubiquitinase, ubiquitin aldehyde binding 1)	0.367
TNR (tenascin R)	-0.356
GLS2 (glutaminase 2)	0.108
NUB1 (negative regulator of ubiquitin like proteins 1)	0.289
OSTM1 (osteoclastogenesis associated transmembrane protein 1)	-0.353
TRABD (TraB domain containing)	0.83
CEACAM7 (CEA cell adhesion molecule 7)	0.408
INTS13 (integrator complex subunit 13)	0.321
DMP1 (dentin matrix acidic phosphoprotein 1)	-0.639
GDPD5 (glycerophosphodiester phosphodiesterase domain containing 5)	0.152
NUP54 (nucleoporin 54)	-0.213
TSPAN12 (tetraspanin 12)	0.219
LINC00597 (long independently transcribed non-coding RNA 597)	0.197
UFSP2 (UFM1 specific peptidase 2)	0.122
LPP	-0.0307
THOC7 (THO complex subunit 7)	0.245
ZNF211 (zinc finger protein 211)	-0.614
COX7B (cytochrome c oxidase subunit 7B)	-0.157
DENND2D (DENN domain containing 2D)	0.0692
CXXC5 (CXXC finger protein 5)	-0.0353
DKFZp566H0824 (retired record)	-0.327
NIFK (nucleolar protein interacting with the FHA domain of MKI67)	0.373
NIT2 (nitrilase family member 2)	0.131
SETD1A (SET domain containing 1A, histone lysine methyltransferase)	-0.127
C1orf116 (chromosome 1 open reading frame 116)	-0.726
C1orf116 (chromosome 1 open reading frame 116)	-0.00542
KIF26B (kinesin family member 26B)	-0.588
ERAS (ES cell expressed Ras)	-0.32
AMACR (alpha-methylacyl-CoA racemase)	0.0232
TCTA (T cell leukemia translocation altered)	-0.312
SAXO6 (stabilizer of axonemal microtubules 6)	-0.54
ELOVL3 (ELOVL fatty acid elongase 3)	0.27
VPS25 (vacuolar protein sorting 25 homolog)	0.864
SCN9A (sodium voltage-gated channel alpha subunit 9)	0.769
ADGRL1 (adhesion G protein-coupled receptor L1)	0.927
CLSPN (claspin)	-0.0512
SLC39A1	0.347
LST1 (leukocyte specific transcript 1)	0.326
EIF2B3 (eukaryotic translation initiation factor 2B subunit gamma)	0.262
NSD3 (nuclear receptor binding SET domain protein 3)	-0.166
RMND5A (required for meiotic nuclear division 5 homolog A)	0.0287
PLCB3 (phospholipase C beta 3)	0.05
SPTAN1 (spectrin alpha, non-erythrocytic 1)	-0.465
PHLDB1 (pleckstrin homology like domain family B member 1)	-0.435
IFI35 (interferon induced protein 35)	0.685
EXOSC8 (exosome component 8)	0.0846
PTPRZ1 (protein tyrosine phosphatase receptor type Z1)	-0.039
MMP17 (matrix metallopeptidase 17)	-0.545
OR1F2P (olfactory receptor family 1 subfamily F member 2 pseudogene)	-0.404
GRIP2 (glutamate receptor interacting protein 2)	0.026

Laid out differently: results already given.
{"Target gene":"NIT2 (nitrilase family member 2)","mean correlation with KSR1 profile":0.131}
{"Target gene":"SETD1A (SET domain containing 1A, histone lysine methyltransferase)","mean correlation with KSR1 profile":-0.127}
{"Target gene":"C1orf116 (chromosome 1 open reading frame 116)","mean correlation with KSR1 profile":-0.726}
{"Target gene":"C1orf116 (chromosome 1 open reading frame 116)","mean correlation with KSR1 profile":-0.00542}
{"Target gene":"KIF26B (kinesin family member 26B)","mean correlation with KSR1 profile":-0.588}
{"Target gene":"ERAS (ES cell expressed Ras)","mean correlation with KSR1 profile":-0.32}
{"Target gene":"AMACR (alpha-methylacyl-CoA racemase)","mean correlation with KSR1 profile":0.0232}
